Reference: PubChem BioAssay AID743121 (NCATS, 2013)
Here is a random part of about 26,000 reagents tested. 167 of them (0.63%) were called active. 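Calls are per gene from RSA p-values that are not deposited; an individual active-marked siRNA can sensitise only weakly.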 Reagents against one gene are numbered here. Further read-outs or replicates are left out here.

- Assay: 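Knock-downs that sensitise breast cancer cells to camptothecin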 (primary screen)
- Cell system: MDA-MB-231 cells, a human breast cancer line
- Knock-down reagent: single siRNA against human genes, 20 nM siRNA (0.8 pmol per well)
- Duration: 120 h (drug added 48 h after transfection, read 72 h later)
- Treatment: camptothecin 20 nM (about EC30) for 72 h; vehicle 0.1% DMSO in parallel plates
- Measured: 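CellTiter-Glo ATP signal, scaled to control siRNA as percent viability; sensitisation given as log2 of untreated divided by camptothecin-treated viability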
- Direction: log2 vehicle/camptothecin viability: higher = stronger sensitisation to camptothecin; viability with camptothecin: higher = more viable cells
- Rule for the call: 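Each gene scored by redundant siRNA activity (RSA) over its individual siRNA ratios; a gene is called active at p < 0.001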

no.	gene knocked down	reagent no.	log2 vehicle/camptothecin viability	viability with camptothecin (% of control)	Outcome
1	PIK3R3 (phosphoinositide-3-kinase regulatory subunit 3)	1	-0.111	105	inactive
2	PIK3R3 (phosphoinositide-3-kinase regulatory subunit 3)	2	-0.217	73.9	inactive
3	PIK3R3 (phosphoinositide-3-kinase regulatory subunit 3)	3	0.798	18.4	inactive
4	PIK3R3 (phosphoinositide-3-kinase regulatory subunit 3)	4	-0.293	129	inactive
5	MTHFD2	1	-0.502	80.5	inactive
6	MTHFD2	2	-0.738	93.4	inactive
7	MTHFD2	3	-0.391	13.9	inactive
8	MTHFD2	4	-0.271	76.4	inactive
9	CES2 (carboxylesterase 2)	1	0.132	43.2	inactive
10	CES2 (carboxylesterase 2)	2	-0.334	68.4	inactive
11	CES2 (carboxylesterase 2)	3	-0.048	59.1	inactive
12	CES2 (carboxylesterase 2)	4	0.0985	44.8	inactive
13	PKD1L1	1	-0.00218	73	inactive
14	PKD1L1	2	-0.329	114	inactive
15	PKD1L1	3	0.105	75.8	inactive
16	AKAP3 (A-kinase anchoring protein 3)	1	-0.23	123	inactive
17	AKAP3 (A-kinase anchoring protein 3)	2	-0.2	107	inactive
18	AKAP3 (A-kinase anchoring protein 3)	3	-0.406	129	inactive
19	AKAP3 (A-kinase anchoring protein 3)	4	0.725	56.9	inactive
20	RAD51D (RAD51 paralog D)	1	-0.369	118	inactive
21	RAD51D (RAD51 paralog D)	2	-0.817	23.7	inactive
22	RAD51D (RAD51 paralog D)	3	0.0413	58.6	inactive
23	RAD51D (RAD51 paralog D)	4	0.0671	38.8	inactive
24	GPHB5 (glycoprotein hormone subunit beta 5)	1	0.0768	64.2	inactive
25	GPHB5 (glycoprotein hormone subunit beta 5)	2	0.194	46.9	inactive
26	GPHB5 (glycoprotein hormone subunit beta 5)	3	0.149	71.2	inactive
27	GPHB5 (glycoprotein hormone subunit beta 5)	4	-0.0244	99	inactive
28	PIH1D1 (PIH1 domain containing 1)	1	1.6	16.6	inactive
29	PIH1D1 (PIH1 domain containing 1)	2	-0.045	55.5	inactive
30	PIH1D1 (PIH1 domain containing 1)	3	0.0523	47	inactive
31	PIH1D1 (PIH1 domain containing 1)	4	-0.137	18.3	inactive
32	OR2M4 (olfactory receptor family 2 subfamily M member 4)	1	-0.669	74.2	inactive
33	OR2M4 (olfactory receptor family 2 subfamily M member 4)	2	0.484	20.6	inactive
34	OR2M4 (olfactory receptor family 2 subfamily M member 4)	3	-0.113	88.8	inactive
35	OR2M4 (olfactory receptor family 2 subfamily M member 4)	4	-0.241	55.3	inactive
36	LNX1 (ligand of numb-protein X 1)	1	-0.388	121	inactive
37	LNX1 (ligand of numb-protein X 1)	2	-0.152	89.3	inactive
38	LNX1 (ligand of numb-protein X 1)	3	-0.343	95.2	inactive
39	LNX1 (ligand of numb-protein X 1)	4	-0.23	96.4	inactive
40	NGF (nerve growth factor)	1	0.0666	99.3	inactive
41	NGF (nerve growth factor)	2	0.243	93.6	inactive
42	NGF (nerve growth factor)	3	-0.162	70.7	inactive
43	NGF (nerve growth factor)	4	0.114	79.8	inactive
44	CCR8 (C-C motif chemokine receptor 8)	1	-0.364	46	inactive
45	CCR8 (C-C motif chemokine receptor 8)	2	0.146	92.9	inactive
46	CDK1 (cyclin dependent kinase 1)	1	-0.331	58.2	inactive
47	CDK1 (cyclin dependent kinase 1)	2	-0.616	95.7	inactive
48	CDK1 (cyclin dependent kinase 1)	3	-0.369	62.8	inactive
49	EHD1 (EH domain containing 1)	1	0.0803	94.9	inactive
50	EHD1 (EH domain containing 1)	2	-0.597	63.2	inactive
51	EHD1 (EH domain containing 1)	3	-0.107	86.4	inactive
52	EHD1 (EH domain containing 1)	4	0.664	6.44	inactive
53	GINS2 (GINS complex subunit 2)	1	-0.271	96.3	inactive
54	GINS2 (GINS complex subunit 2)	2	-0.321	57.3	inactive
55	GINS2 (GINS complex subunit 2)	3	0.105	46.2	inactive
56	GINS2 (GINS complex subunit 2)	4	-0.278	74.1	inactive
57	LLGL2 (LLGL scribble cell polarity complex component 2)	1	0.472	36.4	inactive
58	LLGL2 (LLGL scribble cell polarity complex component 2)	2	0.117	46.8	inactive
59	LLGL2 (LLGL scribble cell polarity complex component 2)	3	-0.182	85.9	inactive
60	LLGL2 (LLGL scribble cell polarity complex component 2)	4	-0.033	82.3	inactive
61	ADAMTS2 (ADAM metallopeptidase with thrombospondin type 1 motif 2)	1	0.482	41.2	inactive
62	ADAMTS2 (ADAM metallopeptidase with thrombospondin type 1 motif 2)	2	-0.0279	42.6	inactive
63	ADAMTS2 (ADAM metallopeptidase with thrombospondin type 1 motif 2)	3	0.108	95.9	inactive
64	ADAMTS2 (ADAM metallopeptidase with thrombospondin type 1 motif 2)	4	-0.496	58.8	inactive
65	PILRA (paired immunoglobin like type 2 receptor alpha)	1	-0.253	130	inactive
66	PILRA (paired immunoglobin like type 2 receptor alpha)	2	-0.0974	106	inactive
67	PILRA (paired immunoglobin like type 2 receptor alpha)	3	0.241	66.8	inactive
68	PILRA (paired immunoglobin like type 2 receptor alpha)	4	-0.243	111	inactive

An excerpt from above, reduced to “viability with camptothecin (% of control)”:
RAD51D (RAD51 paralog D) #1	118
RAD51D (RAD51 paralog D) #2	23.7
RAD51D (RAD51 paralog D) #3	58.6
RAD51D (RAD51 paralog D) #4	38.8
GPHB5 (glycoprotein hormone subunit beta 5) #1	64.2
GPHB5 (glycoprotein hormone subunit beta 5) #2	46.9
GPHB5 (glycoprotein hormone subunit beta 5) #3	71.2
GPHB5 (glycoprotein hormone subunit beta 5) #4	99
PIH1D1 (PIH1 domain containing 1) #1	16.6
PIH1D1 (PIH1 domain containing 1) #2	55.5
